Measured values: article PMC9917060
No constants are given. Whether binding was seen depends on the method and setting. Binding seen in cells or lysates may run through a third protein. A result given as binding can be weak or reduced; the word gives no strength. Sequences can lack the tags named with a protein.

The chains behind the UniProt entries cited, without tags or fusion partners. Where a name states a change or a piece, a line headed by the entry shows the natural chain unless it says otherwise.
UniProt Q9VNE4: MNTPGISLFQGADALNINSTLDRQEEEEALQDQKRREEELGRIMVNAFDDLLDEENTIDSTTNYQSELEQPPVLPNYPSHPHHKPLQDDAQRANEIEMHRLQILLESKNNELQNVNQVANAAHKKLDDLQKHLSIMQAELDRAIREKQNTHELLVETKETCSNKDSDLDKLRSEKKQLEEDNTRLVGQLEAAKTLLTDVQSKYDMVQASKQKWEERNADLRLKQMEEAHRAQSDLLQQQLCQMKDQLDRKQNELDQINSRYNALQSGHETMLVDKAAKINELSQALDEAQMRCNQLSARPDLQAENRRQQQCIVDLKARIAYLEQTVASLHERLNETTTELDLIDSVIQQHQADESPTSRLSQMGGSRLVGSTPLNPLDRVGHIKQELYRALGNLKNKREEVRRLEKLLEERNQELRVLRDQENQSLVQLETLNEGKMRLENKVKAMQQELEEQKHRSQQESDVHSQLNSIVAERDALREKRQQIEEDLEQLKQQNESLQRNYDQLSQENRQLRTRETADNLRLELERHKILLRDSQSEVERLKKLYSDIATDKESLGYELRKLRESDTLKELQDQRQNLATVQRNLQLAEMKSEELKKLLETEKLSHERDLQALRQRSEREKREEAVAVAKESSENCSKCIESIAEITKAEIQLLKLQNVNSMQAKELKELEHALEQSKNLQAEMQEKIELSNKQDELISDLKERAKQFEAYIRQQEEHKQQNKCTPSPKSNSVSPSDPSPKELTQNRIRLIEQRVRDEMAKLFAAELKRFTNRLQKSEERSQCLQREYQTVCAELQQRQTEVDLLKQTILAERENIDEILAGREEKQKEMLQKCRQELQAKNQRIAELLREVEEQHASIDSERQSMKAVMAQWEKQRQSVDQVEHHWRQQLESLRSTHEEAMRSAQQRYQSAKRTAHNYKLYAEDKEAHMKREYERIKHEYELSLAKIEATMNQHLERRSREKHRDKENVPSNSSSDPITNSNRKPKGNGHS

Tests used:
[1] = target: T1, NYFP-Plk4 (Drosophila melanogaster) (UniProt O97143); experiment: split reporter; BiFC with split YFP in wild type D.Mel-2 cells, fixed and stained with anti-Sas6 or anti-Asl
T1 sequence: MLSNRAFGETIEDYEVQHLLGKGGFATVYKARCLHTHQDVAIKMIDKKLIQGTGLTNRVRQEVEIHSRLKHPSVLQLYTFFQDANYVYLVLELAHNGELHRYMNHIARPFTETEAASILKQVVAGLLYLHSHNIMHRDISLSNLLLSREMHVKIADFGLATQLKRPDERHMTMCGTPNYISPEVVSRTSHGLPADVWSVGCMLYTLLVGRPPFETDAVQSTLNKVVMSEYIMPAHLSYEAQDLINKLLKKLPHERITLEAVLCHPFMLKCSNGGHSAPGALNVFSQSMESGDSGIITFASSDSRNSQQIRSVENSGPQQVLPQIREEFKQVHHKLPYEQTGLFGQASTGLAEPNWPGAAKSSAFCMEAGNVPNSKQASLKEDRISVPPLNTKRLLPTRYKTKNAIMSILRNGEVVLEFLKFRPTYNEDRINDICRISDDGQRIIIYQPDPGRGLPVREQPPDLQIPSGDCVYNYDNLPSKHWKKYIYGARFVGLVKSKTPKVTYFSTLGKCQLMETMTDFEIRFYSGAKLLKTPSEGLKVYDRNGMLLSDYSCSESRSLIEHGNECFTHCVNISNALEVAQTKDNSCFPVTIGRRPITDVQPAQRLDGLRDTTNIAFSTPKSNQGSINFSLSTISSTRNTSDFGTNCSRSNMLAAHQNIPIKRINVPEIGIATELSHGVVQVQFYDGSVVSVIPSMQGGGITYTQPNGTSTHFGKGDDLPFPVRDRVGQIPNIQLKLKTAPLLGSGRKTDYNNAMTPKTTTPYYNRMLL

[2] = target: T1, NYFP-Plk4 (Drosophila melanogaster); experiment: split reporter; BiFC with split YFP in D.Mel-2 cells expressing mCherry-Sas6; 0.5 mM CuSO4 for 24 h; live cell imaging

Q: Which binding [1] does the source give for CYFP-Asl (from UniProt Q9VNE4) here?
A: binds

Q: And the binding [2]?
A: binds
